Laboratory results published in the supplement of paper PMC10849652.
The other results are listed elsewhere or left out.

The chains behind the UniProt entries cited, without tags or fusion partners. Where a name states a change or a piece, a line headed by the entry shows the natural chain unless it says otherwise.
UniProt Q96KP1: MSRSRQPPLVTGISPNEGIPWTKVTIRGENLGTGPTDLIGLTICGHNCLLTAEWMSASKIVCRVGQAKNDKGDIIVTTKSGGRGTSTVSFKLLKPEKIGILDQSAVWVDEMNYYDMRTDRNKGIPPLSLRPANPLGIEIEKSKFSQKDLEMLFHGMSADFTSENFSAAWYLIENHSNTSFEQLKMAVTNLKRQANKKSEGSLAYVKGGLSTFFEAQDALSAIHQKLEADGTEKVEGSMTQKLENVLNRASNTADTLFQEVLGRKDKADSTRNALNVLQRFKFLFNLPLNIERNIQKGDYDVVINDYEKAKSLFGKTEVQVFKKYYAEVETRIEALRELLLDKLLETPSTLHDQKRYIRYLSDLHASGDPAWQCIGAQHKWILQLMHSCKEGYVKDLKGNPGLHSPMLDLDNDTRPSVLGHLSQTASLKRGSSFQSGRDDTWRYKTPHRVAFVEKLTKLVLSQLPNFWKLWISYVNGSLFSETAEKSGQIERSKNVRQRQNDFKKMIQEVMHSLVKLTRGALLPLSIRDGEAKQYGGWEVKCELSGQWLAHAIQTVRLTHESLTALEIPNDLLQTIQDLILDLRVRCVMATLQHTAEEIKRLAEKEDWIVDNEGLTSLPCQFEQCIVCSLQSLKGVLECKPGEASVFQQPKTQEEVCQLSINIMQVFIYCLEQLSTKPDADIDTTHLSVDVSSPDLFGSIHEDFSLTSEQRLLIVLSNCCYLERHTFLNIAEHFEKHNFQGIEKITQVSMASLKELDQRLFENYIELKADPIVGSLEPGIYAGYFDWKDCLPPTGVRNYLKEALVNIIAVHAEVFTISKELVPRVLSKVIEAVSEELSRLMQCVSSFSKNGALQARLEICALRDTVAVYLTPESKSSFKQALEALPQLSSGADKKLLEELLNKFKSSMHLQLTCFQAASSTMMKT
UniProt Q96B26, whole entry, looked up: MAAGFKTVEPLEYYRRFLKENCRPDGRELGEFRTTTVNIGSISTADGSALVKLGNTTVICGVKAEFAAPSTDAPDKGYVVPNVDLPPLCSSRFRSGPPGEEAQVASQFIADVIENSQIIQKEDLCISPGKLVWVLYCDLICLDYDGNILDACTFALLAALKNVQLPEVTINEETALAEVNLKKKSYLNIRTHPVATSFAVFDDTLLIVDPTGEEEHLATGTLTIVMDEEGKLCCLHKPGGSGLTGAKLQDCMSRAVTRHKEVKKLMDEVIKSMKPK
UniProt Q9NSI2: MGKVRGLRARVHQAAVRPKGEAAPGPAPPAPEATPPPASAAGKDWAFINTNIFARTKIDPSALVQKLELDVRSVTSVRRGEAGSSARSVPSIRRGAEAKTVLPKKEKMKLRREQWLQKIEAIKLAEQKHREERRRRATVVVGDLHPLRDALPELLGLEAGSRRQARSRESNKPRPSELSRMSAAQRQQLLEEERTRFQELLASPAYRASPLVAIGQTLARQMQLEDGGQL
UniProt P13804: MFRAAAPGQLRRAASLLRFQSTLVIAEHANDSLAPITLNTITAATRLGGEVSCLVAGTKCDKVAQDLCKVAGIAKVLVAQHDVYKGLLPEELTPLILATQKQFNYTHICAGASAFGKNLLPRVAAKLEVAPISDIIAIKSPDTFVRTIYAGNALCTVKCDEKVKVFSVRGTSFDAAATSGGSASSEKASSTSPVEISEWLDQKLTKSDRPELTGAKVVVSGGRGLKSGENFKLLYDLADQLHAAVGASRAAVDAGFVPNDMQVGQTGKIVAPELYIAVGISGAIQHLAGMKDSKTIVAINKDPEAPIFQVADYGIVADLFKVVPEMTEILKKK
UniProt P28715: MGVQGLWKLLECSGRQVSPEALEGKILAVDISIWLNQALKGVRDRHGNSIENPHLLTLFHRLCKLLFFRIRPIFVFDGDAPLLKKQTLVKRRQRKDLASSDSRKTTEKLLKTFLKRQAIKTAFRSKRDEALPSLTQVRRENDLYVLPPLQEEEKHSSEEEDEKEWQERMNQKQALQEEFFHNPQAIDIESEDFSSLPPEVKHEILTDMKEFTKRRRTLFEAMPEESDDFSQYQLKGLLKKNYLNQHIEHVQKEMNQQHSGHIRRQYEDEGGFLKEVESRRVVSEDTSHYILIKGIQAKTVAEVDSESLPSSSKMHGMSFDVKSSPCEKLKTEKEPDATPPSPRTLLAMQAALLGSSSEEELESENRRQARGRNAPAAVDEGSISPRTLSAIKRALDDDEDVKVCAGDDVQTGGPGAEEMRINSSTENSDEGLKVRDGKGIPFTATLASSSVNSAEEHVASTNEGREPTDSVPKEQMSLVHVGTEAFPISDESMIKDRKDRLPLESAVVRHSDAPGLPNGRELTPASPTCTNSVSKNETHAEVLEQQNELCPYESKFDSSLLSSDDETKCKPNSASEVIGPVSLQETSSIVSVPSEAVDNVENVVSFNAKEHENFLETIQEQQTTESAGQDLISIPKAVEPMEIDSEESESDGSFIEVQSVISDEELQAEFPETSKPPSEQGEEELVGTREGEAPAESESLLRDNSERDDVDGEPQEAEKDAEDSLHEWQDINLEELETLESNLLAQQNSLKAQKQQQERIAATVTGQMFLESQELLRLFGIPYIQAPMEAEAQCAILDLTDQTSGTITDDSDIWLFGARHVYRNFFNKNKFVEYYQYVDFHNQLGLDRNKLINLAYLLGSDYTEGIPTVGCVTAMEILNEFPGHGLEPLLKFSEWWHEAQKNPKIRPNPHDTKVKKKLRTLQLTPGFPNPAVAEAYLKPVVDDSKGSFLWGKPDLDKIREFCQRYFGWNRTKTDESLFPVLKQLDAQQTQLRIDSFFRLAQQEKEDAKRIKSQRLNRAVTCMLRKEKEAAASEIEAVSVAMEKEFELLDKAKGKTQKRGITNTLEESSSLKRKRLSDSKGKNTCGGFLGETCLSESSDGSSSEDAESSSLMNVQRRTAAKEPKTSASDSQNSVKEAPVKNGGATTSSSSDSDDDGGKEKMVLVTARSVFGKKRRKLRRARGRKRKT
UniProt Q9UBQ6: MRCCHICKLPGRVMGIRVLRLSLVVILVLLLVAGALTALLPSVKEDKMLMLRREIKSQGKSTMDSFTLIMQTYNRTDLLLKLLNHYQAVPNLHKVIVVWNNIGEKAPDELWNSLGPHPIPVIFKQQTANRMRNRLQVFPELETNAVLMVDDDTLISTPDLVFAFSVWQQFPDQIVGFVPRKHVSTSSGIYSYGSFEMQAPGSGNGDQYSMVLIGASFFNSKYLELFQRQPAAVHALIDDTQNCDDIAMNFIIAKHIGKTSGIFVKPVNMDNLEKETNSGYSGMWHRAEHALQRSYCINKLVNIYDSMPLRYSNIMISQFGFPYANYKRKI
UniProt Q9C073: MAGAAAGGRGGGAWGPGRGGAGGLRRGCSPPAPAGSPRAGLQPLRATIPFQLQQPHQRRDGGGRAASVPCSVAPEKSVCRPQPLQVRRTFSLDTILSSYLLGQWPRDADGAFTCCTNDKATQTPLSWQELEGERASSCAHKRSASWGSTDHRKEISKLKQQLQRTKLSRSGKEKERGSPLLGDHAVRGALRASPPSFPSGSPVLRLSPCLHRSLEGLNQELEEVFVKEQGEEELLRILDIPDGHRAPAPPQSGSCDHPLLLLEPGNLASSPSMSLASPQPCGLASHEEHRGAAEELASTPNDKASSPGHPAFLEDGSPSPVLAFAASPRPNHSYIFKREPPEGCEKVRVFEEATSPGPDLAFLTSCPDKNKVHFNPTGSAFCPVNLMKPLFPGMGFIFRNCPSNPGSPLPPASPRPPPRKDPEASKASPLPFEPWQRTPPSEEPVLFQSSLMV
UniProt Q9Y624, whole entry, looked up, stated change not applied: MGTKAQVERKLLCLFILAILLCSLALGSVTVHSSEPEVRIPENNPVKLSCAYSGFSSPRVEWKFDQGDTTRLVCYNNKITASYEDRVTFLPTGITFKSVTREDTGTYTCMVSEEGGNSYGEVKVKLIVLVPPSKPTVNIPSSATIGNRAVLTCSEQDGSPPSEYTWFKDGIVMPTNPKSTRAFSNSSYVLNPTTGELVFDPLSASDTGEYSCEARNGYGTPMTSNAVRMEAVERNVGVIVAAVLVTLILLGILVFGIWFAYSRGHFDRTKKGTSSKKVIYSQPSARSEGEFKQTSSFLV
UniProt Q93063: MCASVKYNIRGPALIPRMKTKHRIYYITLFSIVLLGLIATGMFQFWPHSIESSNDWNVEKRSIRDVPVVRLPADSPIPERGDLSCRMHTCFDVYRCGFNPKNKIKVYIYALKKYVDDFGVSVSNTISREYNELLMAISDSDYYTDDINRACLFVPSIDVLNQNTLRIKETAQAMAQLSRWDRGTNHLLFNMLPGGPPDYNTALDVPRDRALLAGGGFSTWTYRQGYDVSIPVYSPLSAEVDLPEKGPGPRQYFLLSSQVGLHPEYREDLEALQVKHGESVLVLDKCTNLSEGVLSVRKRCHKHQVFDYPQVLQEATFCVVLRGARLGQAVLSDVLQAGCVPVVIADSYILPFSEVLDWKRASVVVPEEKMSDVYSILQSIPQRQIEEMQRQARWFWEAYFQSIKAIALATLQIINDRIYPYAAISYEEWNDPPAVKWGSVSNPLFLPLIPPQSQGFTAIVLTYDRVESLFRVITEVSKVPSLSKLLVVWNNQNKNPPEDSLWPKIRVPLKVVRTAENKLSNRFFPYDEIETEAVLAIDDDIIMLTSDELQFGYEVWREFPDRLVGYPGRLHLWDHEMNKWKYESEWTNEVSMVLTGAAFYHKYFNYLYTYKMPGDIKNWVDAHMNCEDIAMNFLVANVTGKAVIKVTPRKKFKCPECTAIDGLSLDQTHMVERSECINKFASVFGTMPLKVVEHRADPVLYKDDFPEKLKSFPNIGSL
UniProt O95208: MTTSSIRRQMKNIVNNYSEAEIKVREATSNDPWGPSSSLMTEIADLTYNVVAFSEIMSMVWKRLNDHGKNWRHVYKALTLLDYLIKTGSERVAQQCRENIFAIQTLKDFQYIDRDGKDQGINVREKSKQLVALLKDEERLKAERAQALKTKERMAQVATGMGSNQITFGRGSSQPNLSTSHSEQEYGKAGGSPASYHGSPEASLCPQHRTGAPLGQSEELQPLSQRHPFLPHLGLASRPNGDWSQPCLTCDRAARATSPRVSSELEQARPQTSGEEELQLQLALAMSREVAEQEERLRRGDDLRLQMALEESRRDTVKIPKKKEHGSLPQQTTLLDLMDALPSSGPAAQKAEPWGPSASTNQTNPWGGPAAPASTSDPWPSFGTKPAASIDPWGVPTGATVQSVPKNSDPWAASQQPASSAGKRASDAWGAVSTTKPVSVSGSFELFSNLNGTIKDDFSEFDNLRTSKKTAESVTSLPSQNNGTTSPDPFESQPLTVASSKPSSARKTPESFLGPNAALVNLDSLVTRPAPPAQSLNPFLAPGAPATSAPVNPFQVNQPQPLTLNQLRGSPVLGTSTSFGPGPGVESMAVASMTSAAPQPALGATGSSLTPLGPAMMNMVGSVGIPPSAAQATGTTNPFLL
UniProt Q9NQT5, whole entry, looked up: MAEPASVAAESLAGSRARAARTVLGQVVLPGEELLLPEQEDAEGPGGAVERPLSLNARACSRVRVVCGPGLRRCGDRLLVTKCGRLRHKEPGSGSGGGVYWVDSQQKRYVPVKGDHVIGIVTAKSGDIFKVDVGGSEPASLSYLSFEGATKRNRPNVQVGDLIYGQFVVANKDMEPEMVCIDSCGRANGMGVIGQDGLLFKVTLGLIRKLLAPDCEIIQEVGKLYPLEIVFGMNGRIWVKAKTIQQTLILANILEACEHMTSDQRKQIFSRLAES
UniProt Q0VG06: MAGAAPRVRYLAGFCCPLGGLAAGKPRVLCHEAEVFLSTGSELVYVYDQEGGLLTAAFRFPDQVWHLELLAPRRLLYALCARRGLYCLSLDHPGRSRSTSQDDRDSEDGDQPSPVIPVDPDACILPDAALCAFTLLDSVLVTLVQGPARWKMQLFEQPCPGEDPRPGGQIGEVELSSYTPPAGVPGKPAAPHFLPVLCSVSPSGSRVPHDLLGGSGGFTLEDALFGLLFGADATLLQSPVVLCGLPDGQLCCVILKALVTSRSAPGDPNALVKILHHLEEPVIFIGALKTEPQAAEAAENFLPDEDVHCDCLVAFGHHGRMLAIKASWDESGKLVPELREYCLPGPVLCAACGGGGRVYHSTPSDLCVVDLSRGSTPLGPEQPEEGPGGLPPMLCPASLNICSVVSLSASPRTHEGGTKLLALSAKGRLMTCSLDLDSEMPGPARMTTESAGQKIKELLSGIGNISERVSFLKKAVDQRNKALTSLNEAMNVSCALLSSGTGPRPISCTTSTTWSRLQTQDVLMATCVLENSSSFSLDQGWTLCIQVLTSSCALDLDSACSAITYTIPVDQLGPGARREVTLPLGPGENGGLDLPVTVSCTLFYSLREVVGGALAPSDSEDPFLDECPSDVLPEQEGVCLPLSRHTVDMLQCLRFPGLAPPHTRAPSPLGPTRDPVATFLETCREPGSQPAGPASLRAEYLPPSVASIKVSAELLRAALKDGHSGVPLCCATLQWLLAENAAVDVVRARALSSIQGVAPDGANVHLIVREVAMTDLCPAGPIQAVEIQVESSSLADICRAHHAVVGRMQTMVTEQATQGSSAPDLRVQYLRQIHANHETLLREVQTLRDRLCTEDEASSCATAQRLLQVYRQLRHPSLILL

Legend:
Experiment in all cases: log2 fold change, soluble protein after heating vs DMSO (PISA); higher = thermal stabilisation; K562 cells, 10 uM, 30 min; active = over 0.2 and 3.5 SD of the protein, either way, in both replicates (recomputed)
[1] = compound: CC1=C(C=C(C=C1)NC(=O)C2=CC(=CC=C2)C(C)(C)C#N)NC3=CC4=C(C=C3)N=CN(C4=O)C
Summary of the method: (§1)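 For each measurement, 10 μM compound was applied for 30 min to K562 cells at 2×10^6 cells/mL. Aliquots were heated for 3 min across 48°C-58°C, pooled, and extracted in PBS with 0.5% NP-40 at 4°C; the supernatant after 21,000xg for 90 min was soluble protein. This was quantified by TMTpro 16plex LC-MS/MS with channel sums equalised, and thermal stability was reported relative to control samples from duplicates, on a log2 fold-change scale.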

[2] = compound: CC1=C(C=C(C=C1)NC(=O)C2=CC(=CC=C2)N(C)C)NC(=O)C3=CC=C(C=C3)O
Summary of the method: as §1

[3] = compound: CC1=CC=C(C=C1)SC2=C3C=C(SC3=CN=C2)C(=O)N
Summary of the method: as §1

[4] = compound: CC1=NC(=CC=C1)C2=C(N=C(N2)C(C)(C)C)C3=CC4=NC=CN=C4C=C3
Summary of the method: as §1

Nexturastat A = compound: CCCCN(Cc1ccc(C(=O)NO)cc1)C(=O)Nc1ccccc1 [Nexturastat A]
Summary of the method: as §1

vemurafenib = compound: CCCS(=O)(=O)Nc1ccc(F)c(C(=O)c2c[nH]c3ncc(-c4ccc(Cl)cc4)cc23)c1F [vemurafenib]
Summary of the method: as §1

[5] = compound: CCCS(=O)(=O)Nc1ccc(F)c(C(=O)c2c[nH]c3ncc(Cl)cc23)c1F
Summary of the method: as §1

[6] = compound: CCCc1cc(C)[nH]c(=O)c1CNC(=O)c1cc(-c2ccnc(N3CCN(C)CC3)c2)cc2c1cnn2C(C)C
Summary of the method: as §1

givinostat = compound: CCN(CC)Cc1ccc2cc(COC(=O)Nc3ccc(C(=O)NO)cc3)ccc2c1 [givinostat]
Summary of the method: as §1

barasertib = compound: CCN(CCCOc1ccc2c(Nc3cc(CC(=O)Nc4cccc(F)c4)[nH]n3)ncnc2c1)CCOP(=O)(O)O [barasertib]
Summary of the method: as §1

Target | log2 fold change [1] | log2 fold change [2] | log2 fold change [3] | log2 fold change [4] | log2 fold change (Nexturastat A) | log2 fold change (vemurafenib) | log2 fold change [5] | log2 fold change [6] | log2 fold change (givinostat) | log2 fold change (barasertib)
FADS3 (UniProt Q9Y5Q0) | inactive: 0.031 | inactive: -0.002 | inactive: -0.012 | inactive: 0.031 | inactive: -0.096 | inactive: 0.01 | inactive: 0.026 | inactive: -0.069 | inactive: -0.108 | inactive: 0.042
EXOC2 (UniProt Q96KP1) | inactive: -0.03 | inactive: -0.017 | inactive: 0.051 | inactive: 0.027 | inactive: 0.058 | inactive: 0.041 | inactive: 0.062 | inactive: 0.037 | inactive: 0.177 | inactive: 0.056
EXOSC8 (UniProt Q96B26) | inactive: -0.03 | inactive: 0.009 | inactive: -0.018 | inactive: -0.01 | inactive: 0.006 | inactive: -0.014 | inactive: -0.026 | inactive: -0.038 | inactive: -0.054 | inactive: -0.044
EXOSC4 (UniProt Q9NPD3) | inactive: 0.017 | inactive: 0 | inactive: 0.08 | inactive: -0.039 | inactive: 0.022 | inactive: 0.047 | inactive: 0.069 | inactive: -0.046 | inactive: -0.014 | inactive: -0.007
FAM207A (UniProt Q9NSI2) | inactive: -0.086 | inactive: 0.11 | inactive: -0.006 | inactive: 0.024 | inactive: -0.047 | inactive: 0.038 | inactive: -0.006 | inactive: 0.44 | inactive: 0.148 | inactive: -0.036
ERI3 (UniProt O43414) | inactive: 0.038 | inactive: -0.003 | inactive: -0.02 | inactive: 0.027 | inactive: 0.006 | inactive: -0.031 | inactive: -0.005 | inactive: -0.004 | inactive: 0.009 | inactive: 0
FAM177A1 isoform 2 (UniProt Q8N128) | inactive: -0.071 | inactive: 0.152 | inactive: 0.101 | inactive: 0.039 | inactive: -0.064 | inactive: -0.061 | inactive: 0.014 | inactive: -0.02 | inactive: -0.045 | inactive: 0.037
EXOC6 (UniProt Q8TAG9) | inactive: -0.054 | inactive: -0.028 | inactive: 0.104 | inactive: 0.032 | inactive: 0.133 | inactive: 0.104 | inactive: 0.022 | inactive: 0.009 | inactive: 0.075 | inactive: -0.018
ETFA (UniProt P13804) | inactive: -0.028 | inactive: -0.015 | inactive: 0.027 | inactive: 0.022 | inactive: -0.082 | inactive: 0.028 | inactive: 0.014 | inactive: -0.021 | inactive: -0.084 | inactive: -0.006
ERCC5 (UniProt P28715) | inactive: -0.115 | inactive: -0.106 | inactive: -0.116 | inactive: 0.101 | inactive: -0.077 | inactive: -0.062 | inactive: 0.009 | inactive: 0.037 | inactive: 0.005 | inactive: 0.071
EXTL2 (UniProt Q9UBQ6) | inactive: 0.072 | inactive: -0.003 | inactive: -0.017 | inactive: -0.003 | inactive: -0.163 | inactive: -0.002 | inactive: -0.031 | inactive: -0.043 | inactive: -0.039 | inactive: -0.053
ERCC2 (UniProt P18074) | inactive: -0.024 | inactive: 0.014 | inactive: -0.005 | inactive: -0.038 | inactive: 0.035 | inactive: 0.166 | inactive: 0.036 | inactive: 0.021 | inactive: 0.095 | inactive: -0.007
EPM2AIP1 (UniProt Q7L775) | inactive: -0.024 | inactive: 0.015 | inactive: -0.025 | inactive: -0.011 | inactive: 0.016 | inactive: 0.03 | inactive: 0.003 | inactive: -0.033 | inactive: -0.029 | inactive: 0.039
FAM117A (UniProt Q9C073) | inactive: 0.036 | inactive: 0.013 | inactive: -0.007 | inactive: -0.034 | inactive: 0.004 | inactive: -0.023 | inactive: -0.004 | inactive: -0.001 | inactive: 0.109 | inactive: 0.053
EPS15 (UniProt P42566) | inactive: -0.007 | inactive: -0.018 | inactive: 0.004 | inactive: 0.024 | inactive: 0.007 | inactive: 0.066 | inactive: 0.059 | inactive: 0.014 | inactive: -0.004 | inactive: 0.048
F11R (UniProt Q9Y624) | inactive: -0.026 | inactive: -0.026 | inactive: 0.052 | inactive: -0.027 | inactive: 0.012 | inactive: 0.008 | inactive: -0.03 | inactive: -0.033 | inactive: -0.024 | inactive: -0.016
ETF1 (UniProt P62495) | inactive: 0.006 | inactive: -0.007 | inactive: 0.002 | inactive: 0.004 | inactive: -0.02 | inactive: 0.007 | inactive: 0.017 | inactive: -0.027 | inactive: 0.007 | inactive: 0.01
EXT2 isoform 3 (UniProt Q93063) | inactive: 0.034 | inactive: 0 | inactive: -0.042 | inactive: -0.019 | inactive: 0.142 | inactive: -0.04 | inactive: -0.055 | inactive: 0.043 | inactive: 0.031 | inactive: -0.007
ESPL1 (UniProt Q14674) | inactive: -0.153 | inactive: 0.087 | inactive: 0.17 | inactive: -0.228 | inactive: 0.369 | inactive: -0.215 | inactive: -0.086 | inactive: 0 | inactive: 0.185 | inactive: 0.035
EPN2 (UniProt O95208) | inactive: -0.015 | inactive: 0.079 | inactive: -0.065 | inactive: -0.072 | inactive: -0.027 | inactive: -0.005 | inactive: -0.012 | inactive: -0.048 | inactive: -0.013 | inactive: -0.015
F2 (UniProt P00734) | inactive: -0.1 | inactive: 0.081 | inactive: 0.084 | inactive: 0.092 | inactive: 0.052 | inactive: 0.075 | inactive: -0.133 | inactive: -0.059 | inactive: -0.098 | inactive: 0.06
EXOSC3 (UniProt Q9NQT5) | inactive: -0.004 | inactive: -0.062 | inactive: -0.002 | inactive: 0.019 | inactive: 0.046 | inactive: 0.041 | inactive: -0.041 | inactive: -0.029 | inactive: 0.043 | inactive: -0.005
ESD (UniProt P10768) | inactive: 0.008 | inactive: 0.014 | inactive: 0.037 | inactive: 0 | inactive: -0.1 | inactive: 0.024 | inactive: 0.03 | inactive: -0.072 | inactive: -0.184 | inactive: -0.01
FAM20B (UniProt O75063) | inactive: -0.011 | inactive: -0.009 | inactive: 0.004 | inactive: -0.042 | inactive: 0.03 | inactive: -0.023 | inactive: 0 | inactive: -0.014 | inactive: 0.035 | inactive: 0.02
ERBIN isoform 8 (UniProt Q96RT1) | inactive: 0.147 | inactive: 0.033 | inactive: -0.029 | inactive: 0.018 | inactive: 0.071 | inactive: -0.012 | inactive: -0.01 | inactive: 0.066 | inactive: -0.021 | inactive: -0.002
FAAP100 (UniProt Q0VG06) | inactive: -0.004 | inactive: -0.001 | inactive: -0.039 | inactive: 0.066 | active: -0.327 | inactive: 0 | inactive: -0.033 | inactive: 0.167 | inactive: 0.024 | inactive: 0.051
FABP5 (UniProt Q01469) | inactive: -0.011 | inactive: -0.032 | inactive: -0.005 | inactive: -0.01 | inactive: -0.09 | inactive: 0.068 | inactive: 0.152 | inactive: -0.113 | inactive: -0.045 | inactive: 0.002
ERP29 (UniProt P30040) | inactive: -0.036 | inactive: 0 | inactive: -0.009 | inactive: 0.007 | inactive: -0.045 | inactive: -0.021 | inactive: -0.029 | inactive: 0.008 | inactive: -0.056 | inactive: -0.02
ERC1 (UniProt Q8IUD2) | inactive: 0.035 | inactive: -0.092 | inactive: 0.079 | inactive: -0.071 | inactive: 0.102 | inactive: 0.109 | inactive: 0.044 | inactive: -0.124 | inactive: 0.074 | inactive: 0.043
FADD (UniProt Q13158) | inactive: 0.011 | inactive: -0.046 | inactive: 0.026 | inactive: 0.056 | inactive: 0.108 | inactive: -0.012 | inactive: 0.018 | inactive: 0.096 | inactive: 0.057 | inactive: 0.09

Full records, quoted from the list. Order of values: log2 fold change [1]	log2 fold change [2]	log2 fold change [3]	log2 fold change [4]	log2 fold change (Nexturastat A)	log2 fold change (vemurafenib)	log2 fold change [5]	log2 fold change [6]	log2 fold change (givinostat)	log2 fold change (barasertib)
ETF1 (UniProt P62495) reads inactive: 0.006	inactive: -0.007	inactive: 0.002	inactive: 0.004	inactive: -0.02	inactive: 0.007	inactive: 0.017	inactive: -0.027	inactive: 0.007	inactive: 0.01
EXOC2 (UniProt Q96KP1) reads inactive: -0.03	inactive: -0.017	inactive: 0.051	inactive: 0.027	inactive: 0.058	inactive: 0.041	inactive: 0.062	inactive: 0.037	inactive: 0.177	inactive: 0.056
